# Experimental data from US20220154189A1, “COMPOSITIONS AND METHODS FOR THE TREATMENT OF KRAS ASSOCIATED DISEASES OR DISORDERS” (Dicerna Pharmaceuticals, Inc., priority 2019, published 2022).
# At least one structure is not confirmed: it was looked up by name or label, or the drawing left a doubt.
# What was measured:
# Panc1 tumors = experiment: tumor growth inhibition, human PDAC Panc1 tumors in nude mice; assay type: in vivo; settings: trametinib 3 mg/kg/dose, repeated treatment
# Experimental: 6 to 8 week old immunocompetent or immunocompromised mice (C57BL/6/Nude) were injected subcutaneously with 2×10^6 Pan02 (mouse pancreatic cell line) or 5×10^6 Panc1 (human pancreatic cell line) tumor cells under the right shoulder. Tumor volume was measured every 2-3 days a week to monitor tumor growth. Dosing was initiated when the tumors reached about 200 mm^3. For tumor growth inhibition studies, animals were randomized and assigned to different cohorts and subjected to dosing cycles. KRAS1-formulated LNP (“KRAS/LNP”) or Placebo (scrambled KRAS dsRNAi) formulated LNP was given intravenously via lateral tail vein at a total volume of 10 ml/kg. Immuno-modulatory agents (CSF1 antibody, TGF-β inhibitor, or checkpoint inhibitors) were given intraperitoneally or orally at a volume of 10 ml/kg. Trametinib (MEK inhibitor) was given orally at a total volume of 10 ml/kg.
# Mouse pancreatic cell line Pan02 was obtained from NCI, and human pancreatic cell line Panc1 cells were obtained from ATCC (Manassas, Va.) and grown in RPMI/DMEM medium supplemented with 10% FBS. Pan02 is a murine PDAC cell line with KRAS G12D mutation. Panc1 is a human PDAC cell line with KRAS […] mutation. […]
# Cd274 (PD-L1) mRNA = experiment: mRNA analysis of Cd274 (PD-L1) in Panc1 tumors; assay type: in vivo, human; settings: MEKi treatment alone
# Experimental: To see how trametinib performed in human PDAC, Panc1 tumors were implanted as described above and treated with trametinib (3 mg/kg/dose) as shown in FIG. 12A. Tumor measurements were taken throughout the entire study period to monitor the tumor growth. […] Tumors were collected before and after KRAS/LNP treatments for mRNA analysis.
# Pan02 tumors = experiment: qPCR of tumor microenvironment and stromal activation marker mRNAs in Pan02 tumors; assay type: in vivo, mouse
# Experimental: To see if a single KRAS/LNP treatment would lead to modulation of the tumor microenvironment, samples from the study described in Example 3 (FIGS. 5A-B) were analyzed for certain T-cell markers (CD8 and FoxP3) and chemokines (CXCL1). FoxP3 is a marker for immunosuppressive T cells (Tregs), which play an important role in regulating or suppressing other cells of the immune system. CXCL1 is a chemokine that actively recruits suppressive molecules such as Tregs and myeloid-derived suppressor cells to the tumor microenvironment.
# To see if continuous KRAS inhibition would lead to modulation of the tumor microenvironment, Pan02 tumors from the efficacy study described in Example 3 (FIG. 6) were collected 24 hours after the last dose and subjected to qPCR to measure mRNAs of immune cell markers (CD8, FoxP3), immune suppressive cytokines (CXCL1, CXCL5, and IL10), immune checkpoints (PD-L1) or stromal activation markers (TGF-0, Axin2, ROBO1, and CSF3). […] This in turn led to down-regulation of several key suppressive molecules (FoxP3, CXCL1, and CXCL5). […]
# A similar study was repeated in Pan02 tumors as well. […] In this case, tumors were collected and analyzed for the mRNA markers that contribute to modulation of the tumor microenvironment and stromal activation.
# [1] = after 3 cycles of MEKi treatment alone
# [2] = trametinib alone qdx3, 3 mpk, 24 hours after last dose
smiles,measurement,setting,value
"CC(=O)Nc1cccc(-n2c(=O)n(C3CC3)c(=O)c3c(Nc4ccc(I)cc4F)n(C)c(=O)c(C)c32)c1 [trametinib, reference compound]","tumor growth, response to treatment",Panc1 tumors,stopped responding
same,Cd274 (PD-L1) mRNA levels,Cd274 (PD-L1) mRNA,increased
same,CXCL1 mRNA levels,Pan02 tumors; [1],increased
same,CXCL5 mRNA levels,Pan02 tumors; [1],increased
same,Cd8 mRNA levels,Pan02 tumors; [1],decreased
same,Cd274 (PD-L1) mRNA levels,Pan02 tumors; [1],decreased
same,FoxP3 mRNA levels,Pan02 tumors; [1],decreased
same,Cd8 mRNA levels,Pan02 tumors; [2],unchanged
same,Cd274 (PD-L1) mRNA levels,Pan02 tumors; [2],unchanged
same,FoxP3 mRNA levels,Pan02 tumors; [2],down-regulated
